Assay [1] has as its target Saccharomyces cerevisiae ATG3 C234S catalytic mutant (Saccharomyces cerevisiae) (UniProt P40344). The assay is described as follows: non-reducing SDS-PAGE; purified ATG3 (about 2.5-3 ug) in 50 mM Tris-HCl pH 7.5, 25 °C, untreated or treated with DTTred, GSH, DTTox, H2O2 or Cu2+; stopped with βME-free loading buffer, 5 min at 65 °C; 12% or 15% gels, Coomassie; monomer against disulfide-linked dimer; both purified.

Assay [2] concerns the target Saccharomyces cerevisiae ATG3, wild type (Saccharomyces cerevisiae) (UniProt P40344). The assay is described as follows: condition: only at Eh beyond −345 mV in DTT redox buffer (pH 7.5); non-reducing SDS-PAGE; DTT redox titration, 50 mM Tris-HCl pH 7.5, 20 mM total DTT (DTTred + DTTox), 30 min at 25 °C; Eh beyond −345 mV (most reducing samples); 12% gels, Coomassie; both purified.

Numbering of substitutions follows the chain as printed. Names and notes keep the numbering of the source. These are yes or no findings as the source states them, for the method shown. Where a sequence is shown, tags or fusion partners need not be part of it.

B1: Saccharomyces cerevisiae ATG3 C234S catalytic mutant (enzyme, UniProt P40344 1-310)
chain: MIRSTLSSWREYLTPITHKSTFLTTGQITPEEFVQAGDYLCHMFPTWKWNEESSDISYRDFLPKNKQFLIIRKVPCDKRAEQCVEVEGPDVIMKGFAEDGDEDDVLEYIGSETEHVQSTPAGGTKDSSIDDIDELIQDMEIKEEDENDDTEEFNAKGGLAKDMAQERYYDLYIAYSTSYRVPKMYIVGFNSNGSPLSPEQMFEDISADYRTKTATIEKLPFYKNSVLSVSIHPSKHANVMKILLDKVRVVRQRRRKELQEEQELDGVGDWEDLQDDIDDSLRVDQYLIVFLKFITSVTPSIQHDYTMEGW
As to B1, the binding result in assay [1] is reported as “no binding”.

B2: Saccharomyces cerevisiae ATG3, wild type (enzyme, UniProt P40344 1-310, looked up)
chain: B1 chain with S234C
notes: ATG3 (E2-like enzyme of the ATG8 conjugation system), Saccharomyces cerevisiae; catalytic Cys234; also called ScATG3; ScATG3^WT
For B2, the binding entry in assay [2] was “no binding”.
